According to PMC6967779:
These are yes or no findings as the source states them, for the method shown. Binding seen in cells or lysates may run through a third protein. Some binding calls cover weakened binding; strength is not graded here. Tags and fused reporters may be left off the sequences shown.

By UniProt entry, the sequences of proteins in these tests, tags left out. Residues count along the entry.
UniProt P25705, residues 44-553: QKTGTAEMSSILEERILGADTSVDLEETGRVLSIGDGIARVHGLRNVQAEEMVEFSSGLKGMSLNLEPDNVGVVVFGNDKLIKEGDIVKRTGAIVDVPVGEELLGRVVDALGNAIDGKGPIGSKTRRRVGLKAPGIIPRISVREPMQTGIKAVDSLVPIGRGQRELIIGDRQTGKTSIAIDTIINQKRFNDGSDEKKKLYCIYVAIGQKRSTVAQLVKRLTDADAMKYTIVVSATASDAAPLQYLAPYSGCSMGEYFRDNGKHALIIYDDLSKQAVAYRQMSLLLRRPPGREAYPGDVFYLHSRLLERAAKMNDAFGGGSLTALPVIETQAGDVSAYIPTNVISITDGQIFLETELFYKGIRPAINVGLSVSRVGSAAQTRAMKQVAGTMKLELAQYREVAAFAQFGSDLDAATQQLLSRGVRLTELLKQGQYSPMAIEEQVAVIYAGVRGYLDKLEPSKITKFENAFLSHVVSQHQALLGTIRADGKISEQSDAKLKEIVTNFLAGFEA

Key:
[1] = target: T1, GST-GRA8 WT (1-269) (Toxoplasma gondii); assay: pull-down; 293T cells transfected with GST-GRA8 together with V5-ATP5A1 or Flag-SIRT3; NP-40 lysate; glutathione Sepharose beads, 4 h at 4°C; IB with anti-V5 or anti-Flag
T1 sequence: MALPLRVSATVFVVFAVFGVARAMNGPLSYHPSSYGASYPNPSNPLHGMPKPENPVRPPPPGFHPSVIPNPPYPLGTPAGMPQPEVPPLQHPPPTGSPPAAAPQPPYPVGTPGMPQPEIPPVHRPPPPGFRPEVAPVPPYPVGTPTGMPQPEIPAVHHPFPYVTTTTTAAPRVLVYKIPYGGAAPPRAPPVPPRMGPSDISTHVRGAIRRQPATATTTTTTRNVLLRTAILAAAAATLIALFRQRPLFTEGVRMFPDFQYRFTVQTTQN

[2] = target: T2, WT rGRA8 (recombinant His-tagged Toxoplasma gondii GRA8, 1-269) (Toxoplasma gondii); assay: condition: only in HCT116 cells transduced with lentivirus-shRNA-SIRT3; co-IP; as a1, but HCT116 cells transduced with lentivirus-shRNA-SIRT3 (MOI = 100) for 2 days before rGRA8; only the target purified
T2 sequence: T1 sequence

[3] = target: T2, WT rGRA8 (recombinant His-tagged Toxoplasma gondii GRA8, 1-269) (Toxoplasma gondii); assay: condition: only in HCT116 cells transduced with lentivirus-shRNA-PKCα; co-IP; as a1, but HCT116 cells transduced with lentivirus-shRNA-PKCalpha (MOI = 100) for 2 days before rGRA8; only the target purified
[4] = target: T2, WT rGRA8 (recombinant His-tagged Toxoplasma gondii GRA8, 1-269) (Toxoplasma gondii); assay: co-IP; HCT116 cells (lentivirus-shRNA-NS) incubated with WT rGRA8 for the indicated times; lysed in NP-40 buffer; IP with anti-His, IB with anti-ATP5A1, anti-ATP5C1, anti-SIRT3; only the target purified

V5-ATP5A1 (from UniProt P25705 44-553)
binding [1]: binds

ATP synthase F1 subunit alpha (ATP5A1), endogenous (from UniProt P25705 44-553)
binding [2]: no binding | binding [3]: no binding | binding [4]: binds
